Assay results reported in the supplement of paper PMC8104966.
The list shows a part of the results. Repeats in this data set agree poorly, so a single value says little.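 U2OS cells carrying ACE2 were mixed with U2OS cells carrying full-length spike, and fusion was scored by imaging as the share of nuclei showing both cell types' fluorescent markers. A compound counts as an inhibitory hit when it is non-toxic and its fusion z-score falls below -3, meaning more than three standard deviations below the plate's DMSO wells.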

The compounds below were run on U2OS ACE2 x SARS-CoV-2 spike co-culture (assay: cell-cell fusion (fraction fused) z-score vs plate DMSO control; higher = more fusion). Conditions: 30 µM; 5 h; toxicity class: non-toxic, passed QC.

Row | Structure (SMILES) | cell-cell fusion (z-score)
1 | CCn1c(-c2nonc2N)nc2c(C#CC(C)(C)O)ncc(OC[C@H]3CCCNC3)c21 | inactive: 3.49
2 | NCCCCCC(=O)O [6-Aminocaproic acid] | inactive: 1.68
3 | COc1c2occc2cc2ccc(=O)oc12 [8-Methoxypsoralen] | inactive: 2.51
4 | O=C(Nc1ncc([N+](=O)[O-])s1)c1ccccc1O [Tizoxanide] | inactive: 1.37
5 | COc1cc(C)c2c(=O)cc(-c3ccccc3)oc2c1 | inactive: 1.42
6 | Cl.Cl.Cl.NCCCCNCCCN [Spermidine trihydrochloride] | inactive: 3
7 | Cl.Cl.Cl.NCCCCNCCCN | inactive: 1.53
8 | C=C(C)[C@H]1COc2cc3oc(=O)ccc3cc2O1 | inactive: 2.29
9 | N[C@H](C(=O)O)[C@H]1C[C@@H]1C(=O)O [(2S,1'S,2'S)-2-(carboxycyclopropyl)glycine] | inactive: 3.42
10 | Nc1ccccc1NC(=O)c1ccc(CNc2nccc(-c3cccnc3)n2)cc1 [Mocetinostat (MGCD0103)] | inactive: 1.23
11 | Cl.NCC(O)c1ccc(O)cc1 (racemic) [(±)-Octopamine hydrochloride] | inactive: 1.91
12 | Cn1cc(C2=C(c3ccc(Cl)cc3Cl)C(=O)NC2=O)c2ccccc21 | inactive: 3.59
13 | COc1ccc(CCN2CCN(CCCc3ccccc3)CC2)cc1OC.Cl.Cl | inactive: 0.75
14 | CC=CC1=C(C(=O)O)N2C(=O)[C@@H](NC(=O)[C@H](N)c3ccc(O)cc3)[C@H]2SC1.O [Cefprozil hydrate] | inactive: 1.16
15 | O=c1[nH]c2ccccc2n1C1CCN(CCCC(c2ccc(F)cc2)c2ccc(F)cc2)CC1 [Pimozide] | active: -9.25
16 | C=C(C)[C@@H]1CC[C@]2(C)CC[C@]3(C)[C@@H](CCC4[C@@]5(C)CC[C@H](O)C(C)(C)C5CC[C@]43C)C12 (some centres not stated) | inactive: 1.26
17 | N[C@@H](Cc1cc(I)c(Oc2ccc(O)c(I)c2)c(I)c1)C(=O)[O-].[Na+] [LIOTHYRONINE (L- isomer) SODIUM] | inactive: -2.51
18 | CN(C)C(=N)NC(=N)N.Cl [Metformin hydrochloride] | inactive: 2.67
19 | CN(C)C(=N)NC(=N)N.Cl | inactive: 1.8
20 | CC1=C(/C=C/C(C)=C/C=C/C(C)=C\C=C\C=C(C)/C=C/C=C(C)/C=C/C2=C(C)C(O)C(=O)CC2(C)C)C(C)(C)CC(=O)C1O (configuration not stated) [Astaxanthin] | inactive: 1.84
21 | CC(C)(CO)C(O)C(=O)NCCC(=O)NCCSSCCNC(=O)CCNC(=O)C(O)C(C)(C)CO (configuration not stated) | inactive: 1.15
22 | CNNCc1ccc(C(=O)NC(C)C)cc1 | inactive: 2.79
23 | Cc1cn([C@H]2C=C[C@@H](CO)O2)c(=O)[nH]c1=O [Stavudine] | inactive: 1.18
24 | CCC1=C[C@@H]2C[N@](C1)Cc1c([nH]c3ccccc13)[C@@](C(=O)OC)(c1cc3c(cc1OC)N(C)[C@H]1[C@@](O)(C(=O)OC)[C@H](OC(C)=O)[C@]4(CC)C=CCN5CC[C@@]31[C@H]54)C2 [Vinorelbine (Navelbine)] | inactive: -0.9

Already shown: entries from further up.
Row | Structure (SMILES) | cell-cell fusion (z-score)
6 | Cl.Cl.Cl.NCCCCNCCCN [Spermidine trihydrochloride] | inactive: 3
7 | Cl.Cl.Cl.NCCCCNCCCN | inactive: 1.53
8 | C=C(C)[C@H]1COc2cc3oc(=O)ccc3cc2O1 | inactive: 2.29
9 | N[C@H](C(=O)O)[C@H]1C[C@@H]1C(=O)O [(2S,1'S,2'S)-2-(carboxycyclopropyl)glycine] | inactive: 3.42

Further results

Row | Structure (SMILES) | cell-cell fusion (z-score)
25 | COC[C@H]1C[C@@H](c2ncc(-c3ccc4c(c3)COc3cc5c(ccc6[nH]c([C@@H]7CC[C@H](C)N7C(=O)[C@@H](NC(=O)OC)C(C)C)nc65)cc3-4)[nH]2)N(C(=O)[C@H](NC(=O)OC)c2ccccc2)C1 [Velpatasvir] | inactive: 3.41
26 | NCCc1ccc(O)cc1 [Tyloxapol] | inactive: 1.5
27 | NCCc1ccc(O)cc1 | inactive: 1.99
28 | C[N+](C)(C)CC(O)CC(=O)O.[Cl-] (configuration not stated) | inactive: 1.68
29 | CN1CCCN=C1/C=C/c1cccs1.O=C(O)c1cc2ccccc2c(Cc2c(O)c(C(=O)O)cc3ccccc23)c1O | inactive: 2.92
30 | CC(=O)Nc1ccc(CC(=O)O)cc1 | inactive: 1.7
31 | CC1(C)O[C@H]2CC(=O)OC[C@]23[C@H]2CC[C@@]4(C)[C@H](c5ccoc5)OC(=O)[C@H]5O[C@]54[C@]2(C)C(=O)C[C@@H]13 | inactive: 0.324
32 | CN(C)CC/C=C1/c2ccccc2COc2ccc(CC(=O)O)cc21.Cl [Olopatadine hydrochloride] | inactive: 2.52
33 | CCCS(=O)(=O)Nc1ccc(F)c(C(=O)c2c[nH]c3ncc(Cl)cc23)c1F | inactive: 0.292
34 | CC1(C)S[C@@H]2[C@H](NC(=O)C(C(=O)[O-])c3ccccc3)C(=O)N2[C@H]1C(=O)[O-].[Na+].[Na+] (some centres not stated) | inactive: 0.544
35 | CC(=O)OCC1=C(C(=O)O)N2C(=O)[C@@H](N)C2SC1 (some centres not stated) | inactive: 3.19
36 | CC(=O)NCCCCCC(=O)O | inactive: 3.89
37 | N[C@H]1CONC1=O [L-Cycloserine] | inactive: 2.24
38 | N[C@H]1CONC1=O | inactive: 4.28
39 | COc1cc2ncnc(Nc3cccc(Br)c3)c2cc1OC.Cl | inactive: 1.75
40 | CCCCc1nc2cc(/C=C/C(=O)NO)ccc2n1CCN(CC)CC [SB939 (Pracinostat)] | inactive: 2.07
41 | N[C@@]1(C(=O)O)CC[C@@H](C(=O)O)C1 [trans-(±)-ACPD] | inactive: 1.88
42 | O=C(O)c1ccccc1OP(=O)(O)O | inactive: 0.259
43 | CC(O)Cn1cnc2c1c(=O)n(C)c(=O)n2C (configuration not stated) | inactive: 2
44 | COc1ccc2c(c1OC)C(=O)O[C@H]2[C@H]1c2c(cc3c(c2OC)OCO3)CCN1C.Cl | inactive: 1.51
45 | Cc1cc2nc3c(=O)[nH]c(=O)nc-3n(C[C@H](O)[C@H](O)[C@H](O)CO)c2cc1C [Riboflavin] | inactive: 4.15
46 | CN/C(=C\[N+](=O)[O-])NCCSCc1csc(CN(C)C)n1 | inactive: 3.16
47 | C[C@@H]1C[C@H]2[C@@H]3CCC4=CC(=O)C=C[C@]4(C)[C@@]3(F)[C@@H](O)C[C@]2(C)[C@H]1C(=O)CO [Desoximetasone] | inactive: 0.899
